Assay results published in patent publication US20120100206A1, “TARGETED LIPOSOMES COMPRISING N-CONTAINING BISPHOSPHONATES AND USES THEREOF” (Yissum Research Development Company of the Hebrew …, priority 2009, published 2012).

How the values were obtained:
[1] = tested on: IGROV-1HiFR (human ovarian carcinoma with high expression of folate-receptor) cells; test: Cytotoxicity, 72 hr continuous exposure, 96-multiwell growth assay; format: cell-based; settings: without folate targeting
Experimental: (§1) Cytotoxicity was assayed using varying concentrations of drug (0.1-200 μM) under standard 72 hr, continuous exposure, in 96-multiwell assays. Growth rate was assessed colorimetrically based on methylene blue staining or using the Promega MTS kit, and data was be obtained with an automatic plate reader and IC50 values were determined.

[2] = tested on: KB-HiFR (human head-and-neck carcinoma with high expression of folate-receptor) cells; test: as above; format: cell-based; settings: without folate targeting
Experimental: as §1

NCCCC(O)(P(=O)(O)O)P(=O)(O)O [Free Alendroante, 4-amino-1-hydroxybutylidene-1,1-bisphosphonic acid]
IC50 [1]: 26.5 µM
IC50 [2]: 157 µM
